Assay results: patent EP1073451B1, “D[…] TREATING ISCHEMIA” (University of Kentucky Research Foundation, priority 1998, dated 2002)

Test system: focal middle cerebral arterial occlusion (MCAO) ischemia
Conditions: laser-Doppler flowmetry; for time for cerebral blood flow to return to baseline levels after cessation of ischemia: 4 mg/kg i.p. x4 prior to 1 h MCAO; for reduction in cerebral blood flow: upon induction of ischemia by MCAO, sustained for 1 h, same in control animals

## CC(C)C[C@@H](NC(=O)[C@H](Cc1ccccc1)NC(=O)CNC(=O)[C@@H](C)NC(=O)[C@@H](N)Cc1ccc(O)cc1)C(=O)O [DADLE, Tyr-D-Ala-Gly-Phe-D-Leu-enkephalin]
  time for cerebral blood flow to return to baseline levels after cessation of ischemia: ≤ 0.5 h
  reduction in cerebral blood flow: 20%

## Tyr-Ala-Phe-Asp-Val-Val-Gly-NH2 [deltorphin]
  time for cerebral blood flow to return to baseline levels after cessation of ischemia: ≤ 0.5 h
  reduction in cerebral blood flow: 25%
